Reference: paper PMC7374170, “TRIB3-EGFR interaction promotes lung cancer progression and defines a therapeutic target” (Nature Communications, 2020)
Results are given in words; binding and its absence hold for the method and conditions named. In cells and extracts the contact can be indirect. Here binding means that the protein was enriched with, or labelled near, the bait; the list need not be complete.

Target: epidermal growth factor receptor (EGFR), endogenous (human (endogenous in A549)) (UniProt P00533)
Test: affinity purification with mass spectrometry; IP of lysates from A549 cells with an anti-EGFR antibody, then mass spectrometry-based proteomic analysis

binding: binds
Substance: C-terminus of Hsc70-interacting protein (CHIP), endogenous (from UniProt Q9UNE7 1-303) (enzyme)
